Measured data: PubChem BioAssay AID720505 (Drosophila RNAi Screening Center, 2013)

- Test: 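Fly regulators or components of the CRAC channel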 (primary screen)
- Cells: Drosophila S2R+ cells
- Knock-down reagent: long dsRNA against Drosophila genes
- Conditions: thapsigargin (2 µM) in calcium-free buffer to empty internal stores, then 2 mM calcium added back
- Detection: 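Fluo-4 signal in 384-well plates read on a FLIPR after thapsigargin (2 µM, calcium-free) store depletion and 2 mM calcium add-back; unnormalised mean endpoint per well; screen run twice, selected wells retested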
- Direction: calcium signal and retest calcium signal: higher = more calcium entry after store depletion
- Active means: 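About 1500 genes called as lowering calcium entry, by varying amounts, judged against per-plate control wells with STIM1 as positive and Rho1 as negative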
- Meaning of the calls: active = called as lowering calcium entry; inactive = not called
The deposit covers about 20,000 reagents; below is a random part of those with a known target gene and a result. Over the whole deposit, about 2,100 (10%) were called active. 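Raw plate signals without normalisation; calls rest on control-based scores that were not deposited; replicate 2 separates called from uncalled poorly.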 Reagents against one gene are numbered here. Not given: the amount of reagent, the time to read-out.

{"gene": "Klp59C", "dsRNA no.": 1, "calcium signal, replicate 1": 79.9, "calcium signal, replicate 2": 222, "Call": "inactive"}
{"gene": "fliI", "dsRNA no.": 1, "calcium signal, replicate 1": 132, "calcium signal, replicate 2": 183, "Call": "inactive"}
{"gene": "ham", "dsRNA no.": 1, "calcium signal, replicate 1": 60.7, "calcium signal, replicate 2": 109, "Call": "active"}
{"gene": "ham", "dsRNA no.": 2, "calcium signal, replicate 1": 78.1, "calcium signal, replicate 2": 102, "Call": "active"}
{"gene": "ham", "dsRNA no.": 3, "calcium signal, replicate 1": 70.9, "calcium signal, replicate 2": 105, "retest calcium signal, replicate 1": 76.7, "retest calcium signal, replicate 2": 73.8, "Call": "inactive"}
{"gene": "ham", "dsRNA no.": 4, "calcium signal, replicate 1": 68.5, "calcium signal, replicate 2": 83.5, "Call": "active"}
{"gene": "CG15160", "dsRNA no.": 1, "calcium signal, replicate 1": 120, "calcium signal, replicate 2": 102, "Call": "inactive"}
{"gene": "l(2)k14505", "dsRNA no.": 1, "calcium signal, replicate 1": 156, "calcium signal, replicate 2": 108, "Call": "inactive"}
{"gene": "Rift", "dsRNA no.": 1, "calcium signal, replicate 1": 73.1, "calcium signal, replicate 2": 148, "Call": "inactive"}
{"gene": "Dred", "dsRNA no.": 1, "calcium signal, replicate 1": 74.5, "calcium signal, replicate 2": 162, "Call": "inactive"}
{"gene": "Dred", "dsRNA no.": 2, "calcium signal, replicate 1": 97.1, "calcium signal, replicate 2": 143, "Call": "inactive"}
{"gene": "Tsp42Ea", "dsRNA no.": 1, "calcium signal, replicate 1": 118, "calcium signal, replicate 2": 104, "Call": "inactive"}
{"gene": "Tsp42Ea", "dsRNA no.": 2, "calcium signal, replicate 1": 91.4, "calcium signal, replicate 2": 99.4, "Call": "inactive"}
{"gene": "CG5397", "dsRNA no.": 1, "calcium signal, replicate 1": 137, "calcium signal, replicate 2": 289, "Call": "inactive"}
{"gene": "Klp10A", "dsRNA no.": 1, "calcium signal, replicate 1": 105, "calcium signal, replicate 2": 83.5, "Call": "inactive"}
{"gene": "CG12942", "dsRNA no.": 1, "calcium signal, replicate 1": 155, "calcium signal, replicate 2": 112, "Call": "inactive"}
{"gene": "CG15550", "dsRNA no.": 1, "calcium signal, replicate 1": 157, "calcium signal, replicate 2": 130, "Call": "inactive"}
{"gene": "CG18641", "dsRNA no.": 1, "calcium signal, replicate 1": 216, "calcium signal, replicate 2": 163, "Call": "inactive"}
{"gene": "CG14384", "dsRNA no.": 1, "calcium signal, replicate 1": 99.4, "calcium signal, replicate 2": 72.3, "Call": "inactive"}
{"gene": "spas", "dsRNA no.": 1, "calcium signal, replicate 1": 153, "calcium signal, replicate 2": 205, "Call": "inactive"}
{"gene": "GstD1", "dsRNA no.": 1, "calcium signal, replicate 1": 96.1, "calcium signal, replicate 2": 103, "Call": "inactive"}
{"gene": "Acbp1", "dsRNA no.": 1, "calcium signal, replicate 1": 156, "calcium signal, replicate 2": 176, "Call": "inactive"}
{"gene": "CG15870", "dsRNA no.": 1, "calcium signal, replicate 1": 141, "calcium signal, replicate 2": 148, "Call": "inactive"}
{"gene": "CG5180", "dsRNA no.": 1, "calcium signal, replicate 1": 230, "calcium signal, replicate 2": 179, "Call": "inactive"}
{"gene": "disco", "dsRNA no.": 1, "calcium signal, replicate 1": 94.5, "calcium signal, replicate 2": 113, "Call": "inactive"}
{"gene": "CTCF", "dsRNA no.": 1, "calcium signal, replicate 1": 104, "calcium signal, replicate 2": 112, "Call": "inactive"}
{"gene": "Tgt", "dsRNA no.": 1, "calcium signal, replicate 1": 137, "calcium signal, replicate 2": 296, "Call": "inactive"}
{"gene": "CG9784", "dsRNA no.": 1, "calcium signal, replicate 1": 114, "calcium signal, replicate 2": 122, "Call": "inactive"}
{"gene": "CG10931", "dsRNA no.": 1, "calcium signal, replicate 1": 178, "calcium signal, replicate 2": 172, "Call": "inactive"}
{"gene": "CG5767", "dsRNA no.": 1, "calcium signal, replicate 1": 124, "calcium signal, replicate 2": 139, "Call": "inactive"}
{"gene": "CG7044", "dsRNA no.": 1, "calcium signal, replicate 1": 138, "calcium signal, replicate 2": 128, "Call": "inactive"}
{"gene": "CG14882", "dsRNA no.": 1, "calcium signal, replicate 1": 129, "calcium signal, replicate 2": 252, "Call": "inactive"}
{"gene": "CG32944", "dsRNA no.": 1, "calcium signal, replicate 1": 105, "calcium signal, replicate 2": 109, "Call": "inactive"}
{"gene": "CG32944", "dsRNA no.": 2, "calcium signal, replicate 1": 104, "calcium signal, replicate 2": 149, "Call": "inactive"}
{"gene": "dia", "dsRNA no.": 1, "calcium signal, replicate 1": 122, "calcium signal, replicate 2": 111, "Call": "inactive"}

A stretch taken from the entries so far, for reference:
{"gene": "CG5180", "dsRNA no.": 1, "calcium signal, replicate 1": 230, "calcium signal, replicate 2": 179, "Call": "inactive"}
{"gene": "disco", "dsRNA no.": 1, "calcium signal, replicate 1": 94.5, "calcium signal, replicate 2": 113, "Call": "inactive"}
{"gene": "CTCF", "dsRNA no.": 1, "calcium signal, replicate 1": 104, "calcium signal, replicate 2": 112, "Call": "inactive"}
